Measured values reported in publication PMC4742184.
No constants are given. Whether binding was seen depends on the method and setting. In cells and extracts the contact can be indirect. Some entries that bind do so weakly or less than the wild type.

Sequences of proteins named here, by UniProt entry; tags and fusion partners are left off.
UniProt Q9UBN7: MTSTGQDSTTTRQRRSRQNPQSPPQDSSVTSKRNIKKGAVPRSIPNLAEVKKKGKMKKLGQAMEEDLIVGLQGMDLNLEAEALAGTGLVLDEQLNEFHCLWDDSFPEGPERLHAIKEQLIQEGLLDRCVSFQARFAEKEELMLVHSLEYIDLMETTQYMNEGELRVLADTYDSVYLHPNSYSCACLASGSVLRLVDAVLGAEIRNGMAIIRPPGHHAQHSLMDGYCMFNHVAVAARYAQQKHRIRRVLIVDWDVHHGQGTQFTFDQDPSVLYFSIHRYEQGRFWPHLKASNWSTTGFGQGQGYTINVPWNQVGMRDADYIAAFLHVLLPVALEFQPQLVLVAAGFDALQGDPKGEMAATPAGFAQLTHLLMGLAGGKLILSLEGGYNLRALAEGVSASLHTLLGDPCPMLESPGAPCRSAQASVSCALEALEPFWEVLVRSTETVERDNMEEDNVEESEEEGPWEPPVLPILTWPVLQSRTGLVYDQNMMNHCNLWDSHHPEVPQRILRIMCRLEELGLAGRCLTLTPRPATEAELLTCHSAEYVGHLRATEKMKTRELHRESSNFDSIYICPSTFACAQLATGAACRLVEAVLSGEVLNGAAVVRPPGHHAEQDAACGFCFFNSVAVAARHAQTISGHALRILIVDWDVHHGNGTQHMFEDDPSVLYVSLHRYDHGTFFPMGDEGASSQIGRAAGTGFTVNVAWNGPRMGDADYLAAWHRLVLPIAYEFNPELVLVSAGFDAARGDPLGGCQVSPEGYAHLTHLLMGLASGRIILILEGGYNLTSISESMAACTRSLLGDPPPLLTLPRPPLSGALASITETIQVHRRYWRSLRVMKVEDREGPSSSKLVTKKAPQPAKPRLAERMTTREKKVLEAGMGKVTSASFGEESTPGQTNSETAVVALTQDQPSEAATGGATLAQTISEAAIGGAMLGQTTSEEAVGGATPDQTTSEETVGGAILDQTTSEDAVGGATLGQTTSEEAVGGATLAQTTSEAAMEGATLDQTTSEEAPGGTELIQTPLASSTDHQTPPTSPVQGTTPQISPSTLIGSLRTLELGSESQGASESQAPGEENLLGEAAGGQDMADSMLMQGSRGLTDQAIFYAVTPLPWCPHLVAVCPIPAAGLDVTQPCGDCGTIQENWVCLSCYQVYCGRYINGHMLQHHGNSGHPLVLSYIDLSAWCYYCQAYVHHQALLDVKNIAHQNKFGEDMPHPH
UniProt O94811: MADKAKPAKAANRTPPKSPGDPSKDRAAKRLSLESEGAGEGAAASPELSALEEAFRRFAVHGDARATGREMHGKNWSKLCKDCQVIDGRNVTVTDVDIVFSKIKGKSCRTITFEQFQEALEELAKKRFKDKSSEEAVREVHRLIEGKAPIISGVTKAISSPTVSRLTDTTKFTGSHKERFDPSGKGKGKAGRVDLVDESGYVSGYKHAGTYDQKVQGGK

Biological target: HDAC6 (human (endogenous in HTC/C3)) (UniProt Q9UBN7)
Assay: co-IP; endogenous proteins from HTC/C3 lysate (50 mM Tris-HCl pH 7.4, 150 mM NaCl, 1% Triton X-100), ~2 ug primary antibody overnight at 4°C, Protein G sepharose, western blot; cells treated with 10 uM SP600125 or DMSO for 72 hours

Substance: TPPP1 (from UniProt O94811 1-219)
- binding: binds
